Cell mass data for 31 molecules are collected here from the supplement of paper PMC7889204.

Molecules are shown by their SMILES. Where a name gives a salt, the structure may show the parent alone. This is one part of the list. Single values are uncertain, as repeats are few or missing.

This assay concerns C6. Kind of assay: cell mass (Coomassie absorbance) after combination of library compound with HMBA, relative to vehicle control (fraction); higher = more remaining cells (less growth inhibition).
Take `Nc1cc(C(F)(F)F)c(-c2cc(N3CCOCC3)nc(N3CCOCC3)n2)cn1` + CC(=O)NCCCCCCNC(C)=O [hexamethylene bisacetamide]: the cell mass was 0.504.
The same measure for `Nc1nc(Nc2ccc(S(N)(=O)=O)cc2)nn1C(=O)c1c(F)cccc1F` + CC(=O)NCCCCCCNC(C)=O [hexamethylene bisacetamide]: 0.414; for `CC(C)C[C@@H](C(=O)N[C@H](C(=O)OC1CCCC1)c1ccccc1)[C@H](O)C(=O)NO` + CC(=O)NCCCCCCNC(C)=O [hexamethylene bisacetamide]: 0.551; for `Cc1c(C(=O)Nc2ccc(N3C[C@@H](C)O[C@@H](C)C3)nc2)cccc1-c1ccc(OC(F)(F)F)cc1` + CC(=O)NCCCCCCNC(C)=O [hexamethylene bisacetamide]: 0.601.
The same measure for `Oc1c2ccccc2c2c3c(cccc13)N=N2` + CC(=O)NCCCCCCNC(C)=O [hexamethylene bisacetamide]: 0.398.
The same measure for `CN1CCC(CNc2ccc3ncc(-c4cccc(OC(F)(F)F)c4)n3n2)CC1` + CC(=O)NCCCCCCNC(C)=O [hexamethylene bisacetamide]: 0.597; for `O=C(CN1C(=O)C2(CCCC2)NC[C@H]1c1cc(F)cc(F)c1)Nc1ccc2c(c1)C[C@@]1(C2)C(=O)Nc2ncccc21` [MK 3207 hydrochloride] + CC(=O)NCCCCCCNC(C)=O [hexamethylene bisacetamide]: 0.692; for `Cc1cc(Nc2nc(N[C@@H](C)c3ccc(F)cc3)c(C#N)cc2F)n[nH]1` + CC(=O)NCCCCCCNC(C)=O [hexamethylene bisacetamide]: 0.494.
`COc1ccc(S(=O)(=O)Nc2cccnc2Nc2ccc(O)cc2)cc1` + CC(=O)NCCCCCCNC(C)=O [hexamethylene bisacetamide]: the cell mass came out at 0.474.
Consider `COc1ccc2[nH]c([S@@+]([O-])Cc3ncc(C)c(OC)c3C)nc2c1` [Esomeprazole sodium] + CC(=O)NCCCCCCNC(C)=O [hexamethylene bisacetamide], for which the cell mass was found to be 0.776.
The same measure for `Cc1ccc(S(=O)(=O)OCC(=O)Nc2ccc(C(=O)O)c(O)c2)cc1` + CC(=O)NCCCCCCNC(C)=O [hexamethylene bisacetamide]: 0.448.
For the molecule `Cc1ccc([N+](=O)[O-])cc1S(=O)(=O)N(C)/N=C/c1cnc2ccc(Br)cn12` [PIK-75 Hydrochloride] + CC(=O)NCCCCCCNC(C)=O [hexamethylene bisacetamide], the cell mass stood at 0.162.
As for `O=c1c(-c2ccc(O)cc2)coc2cc(O)cc(O)c12` [Genistein] + CC(=O)NCCCCCCNC(C)=O [hexamethylene bisacetamide], the cell mass came to 0.57.
In the case of `NC(=O)c1cccc(-c2cccc(OC(=O)NC3CCCCC3)c2)c1` + CC(=O)NCCCCCCNC(C)=O [hexamethylene bisacetamide], the cell mass is 0.477.
With `O=C1NC(=O)/C(=C/c2ccc(-c3ccc(F)cc3O)o2)S1` + CC(=O)NCCCCCCNC(C)=O [hexamethylene bisacetamide] the figure was 0.456.
As for `O=C(O)c1ccc2c(c1)nc(Nc1cccc(Cl)c1)c1ccncc12` + CC(=O)NCCCCCCNC(C)=O [hexamethylene bisacetamide], the cell mass came out at 0.476.
The same measure for `CC(C)Cc1ccc(C(C)C(=O)O)cc1` (stereo unspecified) [Ibuprofen Lysine] + CC(=O)NCCCCCCNC(C)=O [hexamethylene bisacetamide]: 0.832; for `C=C1C(=O)O[C@@H]2/C=C(\C)CC/C=C(\C)CC[C@@H]12` [Costunolide] + CC(=O)NCCCCCCNC(C)=O [hexamethylene bisacetamide]: 0.383; for `O=C(NC[C@H](O)CO)c1ccncc1Nc1ccc(I)cc1F` + CC(=O)NCCCCCCNC(C)=O [hexamethylene bisacetamide]: 0.276.
As to `COc1ccccc1N1CCN(CCN2C(=O)CC3(CCCC3)CC2=O)CC1` + CC(=O)NCCCCCCNC(C)=O [hexamethylene bisacetamide], the cell mass was found to be 0.865.
With `COC(=O)Nc1ccc(-c2nc(N3CCOCC3)c3cnn(C4CCN(Cc5cccnc5)CC4)c3n2)cc1` + CC(=O)NCCCCCCNC(C)=O [hexamethylene bisacetamide] the figure was 0.612; with `N#C/C(=C\c1ccc(O)c(O)c1)C(=O)NCc1ccccc1` + CC(=O)NCCCCCCNC(C)=O [hexamethylene bisacetamide], 0.492.
With `N#Cc1ccc(C(c2ccc(C#N)cc2)n2cncn2)cc1` [Letrozole] + CC(=O)NCCCCCCNC(C)=O [hexamethylene bisacetamide] the figure was 0.455.
With `CN(C)c1ccc(-c2nc3ncc(Cl)c(N4CCN(CC(=O)Nc5nccs5)CC4)c3[nH]2)cc1` + CC(=O)NCCCCCCNC(C)=O [hexamethylene bisacetamide] the figure was 0.552.
As to `CN(C)C(=N)NC(=N)N` [Metformin hydrochloride] + CC(=O)NCCCCCCNC(C)=O [hexamethylene bisacetamide], the cell mass is 0.866.
The same measure for `COC(=O)N[C@H](C(=O)N[C@@H](Cc1ccccc1)[C@@H](O)CN(Cc1ccc(-c2ccccn2)cc1)NC(=O)[C@@H](NC(=O)OC)C(C)(C)C)C(C)(C)C` [Atazanavir sulfate] + CC(=O)NCCCCCCNC(C)=O [hexamethylene bisacetamide]: 0.866; for `C[C@H](NC(=O)Cc1cc(F)cc(F)c1)C(=O)N[C@@H]1C(=O)N(C)c2ccccc2-c2ccccc21` + CC(=O)NCCCCCCNC(C)=O [hexamethylene bisacetamide]: 0.602.
In the case of `CCc1c2c(nc3ccc(OC(=O)N4CCC(N5CCCCC5)CC4)cc13)-c1cc3c(c(=O)n1C2)COC(=O)[C@]3(O)CC` [Irinotecan Hcl Trihydrate] + CC(=O)NCCCCCCNC(C)=O [hexamethylene bisacetamide], the cell mass turned out to be 0.752.
Turning to `CN(CCOc1ccc(CC2SC(=O)NC2=O)cc1)c1ccccn1` (stereo unspecified) [Rosiglitazone] + CC(=O)NCCCCCCNC(C)=O [hexamethylene bisacetamide], the cell mass came to 0.474.
As to `C#Cc1cccc(Nc2ncnc3cc(OC)c(OCCCCCCC(=O)NO)cc23)c1` + CC(=O)NCCCCCCNC(C)=O [hexamethylene bisacetamide], the cell mass stood at 0.555.
The same measure for `S=C(NCc1ccc2c(c1)OCO2)N1CCN(c2ncnc3c2oc2ccccc23)CC1` + CC(=O)NCCCCCCNC(C)=O [hexamethylene bisacetamide]: 0.0811.
